In PubChem BioAssay AID590 (National Center for Advancing Translational Sciences (NCATS), 2007):
Among all 59,000 compounds or so, about 6,500 (11%) were called active. The inconclusive results got no clear call from the source; some entries with a clear call stand among them for comparison. No stated cut-off is given here; in the data, active means max dye-equivalent concentration above about 10 nM; inconclusive means mostly about 1.1 nM to 9.6 nM; inactive means weaker than that.

assay: qHTS Assay for Spectroscopic Profiling in A350 Spectral Region; settings: Compound autofluorescence, 340/450 nm, Alexa 350 dye-equivalents; hits give high values

Compound | max dye-equivalent concentration
Cc1cc(N2CCN(C)CC2)nc(N2CCOCC2)n1 | inactive
c1ccc(CC2CCN(c3nc4ccccc4n4nnnc34)CC2)cc1 | active: 250 nM
Cc1ccc(S(=O)(=O)Cn2nnnc2C(c2ccccn2)N2CCN(c3ccccc3)CC2)cc1 (stereo unspecified) | inconclusive: 6.9 nM
C1CNCCNCCCNCCNC1 | inactive
CCc1nnc(NC=C2C(=O)OC(C)(C)OC2=O)s1 | inconclusive: 5 nM
Cc1noc(C)c1C(=O)N1CCC[C@@]2(CCN(c3ncccn3)C2)C1 | inactive
O=c1c2c(nc3nc(COc4ccccc4)[nH]n13)CCC2 | inactive
Cc1ccc2c(C)nc(NC3=NCN(CCc4ccccc4)CN3)nc2c1 | inconclusive: 1.7 nM
O=c1c2ccccc2sn1-c1ccc(S(=O)(=O)N2CCCC2)cc1 | inactive
CC(C)(C)c1cc(C(c2cccnc2)N2CCN(CCO)CC2)cc(C(C)(C)C)c1O (stereo unspecified) | inconclusive: 1.2 nM
c1ccc2c(c1)CCCN2Cc1nnnn1CC1CCCO1 (stereo unspecified) | inconclusive: 4.9 nM
O=C(O)NCc1ccccc1 (tested in a mixture with another compound) | inactive
Cn1c(C(=O)NCCCN2CCCC2=O)cc2c(=O)n3ccccc3nc21 | active: 4600 nM
CCCCOC(=O)CCn1[nH]c(=O)c2ccccc2c1=O | inconclusive: 3.2 nM
OC[C@@H]1O[C@H](n2cnc3c(/C=C(\O)c4ccccc4)ncnc32)[C@H](O)[C@@H]1O | inconclusive: 9.4 nM
COc1cc2c(cc1OC)C(c1ccc3c(c1)OCO3)CC(=O)N2 (stereo unspecified) | inconclusive: 1.8 nM
O=C(CCCN1C(=O)c2ccccc2C1=O)Nc1ccc(S(=O)(=O)N2CCOCC2)cc1 | inactive
CCCOc1ccc(Cc2nc(N)nc(N)n2)cc1 | inconclusive: 1.7 nM
O=C(NCN1C(=O)C2C3C=CC(C3)C2C1=O)Nc1nncs1 (stereo unspecified) | inactive
COc1ccc(C)cc1S(=O)(=O)Nc1cccc(Cl)c1 | inconclusive: 1.2 nM
COc1ccc(-c2cc(C(F)(F)F)n3nc(C(=O)O)nc3n2)cc1 | active: 220 nM
Cc1ccc(C)c(N2CCN(C(=O)c3ccc(NS(=O)(=O)c4c(C)noc4C)cc3)CC2)c1 | inactive
CCCOc1ccc(/C(O)=C2/C(=O)C(=O)N(CCN(CC)CC)C2c2ccncc2)cc1 (stereo unspecified) | inconclusive: 5.3 nM

Compound | max dye-equivalent concentration
CCC(Sc1ccc2nnc(-c3ccc(F)cc3)n2n1)C(=O)O (stereo unspecified) | inconclusive: 7.3 nM
CCCCOc1ccc(/C(O)=C2/C(=O)C(=O)N(CCCOC)C2c2ccncc2)cc1 (stereo unspecified) | inconclusive: 3.2 nM
COc1cc2c3cc1Oc1c(OC)c(OC)cc4c1[C@@H](Cc1ccc(O)c(c1)Oc1ccc(cc1)C[C@@H]3N(C)CC2)N(C)CC4 | inactive
c1cncc(-c2nn3c(Cn4cnc5ccccc54)nnc3s2)c1 | active: 93 nM
CCn1c(SC/C=C/c2ccccc2)nnc1-c1cnccn1 | active: 28 nM
COc1ccc(CCNC(=O)c2ccc3nc(-c4ccco4)c(-c4ccco4)nc3c2)cc1OC | active: 14 nM
CCOC(=O)C(C)Sc1nc(-c2ccco2)cc(C(F)(F)F)c1C#N (stereo unspecified) | active: 390 nM
COc1ccc(Nc2cc(C(=O)NCCCN3CCN(C)CC3)c3ccccc3n2)c(OC)c1 | inactive
O=C1CCc2cc(S(=O)(=O)N3CCN(C(=O)c4ccco4)CC3)ccc2N1 | inconclusive: 1.3 nM
FC(F)(F)c1ccccc1-c1ccc2ncnc(NCc3cccs3)c2c1 | inactive
Nc1cc(C(=O)OCC(=O)NCC2CCCO2)ccc1Cl (stereo unspecified) | inconclusive: 6 nM
Cc1cc(NC(=O)CCC2COc3ccccc3O2)no1 (stereo unspecified) | inconclusive: 2.9 nM
N/C(=N\S(=O)(=O)c1ccc(Cl)s1)c1ccccc1 | active: 25 nM
COc1ccc(CNc2nc(-c3ccc(N(C)C)cc3)nc3ccccc23)c(OC)c1 | inconclusive: 1.4 nM
COc1ccc(-c2nc(C#N)c(N3CCOCC3)o2)cc1OC | active: 52 nM
CCOC(=O)CS(=O)(=O)c1nc(-c2ccc(F)cc2)cc(C(F)(F)F)n1 | inconclusive: 1.7 nM
CCCc1cc(=O)n2[nH]c(NCc3c(Cl)cccc3Cl)nc2n1 | inconclusive: 1.8 nM
CC(C)(C)NC(=O)CSc1nnc(-c2ccco2)n1Cc1ccco1 | inconclusive: 1.7 nM
Cn1c(CN2CCCCC2)nc2cc(NC(=O)c3ccccc3)ccc21 | inconclusive: 5 nM
O=C(NC1CCCCC1)C1c2ccccc2C(=O)N1Cc1ccco1 (stereo unspecified) | inactive
COc1ccc(Cc2nnc(SC)[nH]c2=O)cc1OC | inactive
COc1ccccc1CNC(=O)C1CCCN(S(C)(=O)=O)C1 (stereo unspecified) | inconclusive: 2.8 nM
Oc1ccc(Cn2c(-c3ccc(O)cc3)nc3ccccc32)cc1 | inconclusive: 1.3 nM

Another view of 2 compounds above.

| Compound | max dye-equivalent concentration |
| --- | --- |
| N/C(=N\S(=O)(=O)c1ccc(Cl)s1)c1ccccc1 | active: 25 nM |
| CCCc1cc(=O)n2[nH]c(NCc3c(Cl)cccc3Cl)nc2n1 | inconclusive: 1.8 nM |

Looked up by structure from the list above (two):
Compound | max dye-equivalent concentration
CCCc1cc(=O)n2[nH]c(NCc3c(Cl)cccc3Cl)nc2n1 | inconclusive: 1.8 nM
N/C(=N\S(=O)(=O)c1ccc(Cl)s1)c1ccccc1 | active: 25 nM

Looked up above:
`c1cncc(-c2nn3c(Cn4cnc5ccccc54)nnc3s2)c1` – max dye-equivalent concentration: active: 93 nM
`COc1ccc(CCNC(=O)c2ccc3nc(-c4ccco4)c(-c4ccco4)nc3c2)cc1OC` – max dye-equivalent concentration: active: 14 nM

Additional results

Compound | max dye-equivalent concentration
NC(=O)NC(Cc1ccccc1)C(=O)O (stereo unspecified) | inconclusive: 8 nM
O=c1[nH]c(-c2ccccc2)c(-c2ccccc2)[nH]1 | active: 14 nM
COc1ccc(CCNC(=O)C2CCCN2C(=O)NC2CCCCC2)cc1OC (stereo unspecified) | inactive
CC(=O)NC(Cc1ccccc1)C(=O)N1CCN(C(=O)c2ccco2)CC1 (stereo unspecified) | inactive
O=C(NCCN1CCOCC1)c1c(F)c(F)c(F)c(F)c1F | inactive
CC(C)C(c1nnnn1C1CCCC1)N1CCN(C(=O)c2ccco2)CC1 (stereo unspecified) | inconclusive: 4.2 nM
Cc1cnc(CNc2ncnc3ccc(-c4ccccc4CN(C)C)cc23)cn1 | inconclusive: 1.3 nM
N#CCSc1nc2cc(C(=O)N3CCC(C(N)=O)CC3)ccc2c2nc3ccccc3n12 | inconclusive: 1.5 nM
COC(=O)c1ccccc1NC(=O)CSc1nnc(-c2ccoc2C)n1C | inconclusive: 1.5 nM
O=C1CC(c2ccco2)CC(O)=C1C=NCCN1CCN(C2CC(=O)N(c3ccccc3)C2=O)CC1 (stereo unspecified) | inactive
COc1ncc2nc(-c3ccc(Cl)cc3)c(=O)n(CCC#N)c2n1 | inconclusive: 6.3 nM
COc1ccc(-n2nnc3c(=O)n(Cc4cccc(C)c4)cnc32)cc1 | inconclusive: 1.4 nM
O=C(Nc1ccc(-c2nc3ccccc3[nH]2)cc1)c1ccco1 | active: 84 nM
CCOC(=O)N1CCC(NC(=O)c2ccc3c(=O)n4c(nc3c2)CCCC4)CC1 | inactive
CCN(C(=O)c1cn(C)c(=O)c2cc(OC)c(OC)cc12)c1cc(OC)ccc1OC | inactive
O=C(OCc1nc2ccccc2s1)c1ccc(Br)s1 | inconclusive: 2.9 nM
COc1cc([C@@H]2[C@H]3CN(C)CC=C3C(C#N)=C(N)C2(C#N)C#N)cc2c1OCO2 | active: 130 nM
Cc1ccc(S(=O)(=O)N2CCOCC2)cc1C(=O)NCc1ccc(F)cc1 | inactive
CC12C(=O)N(c3nccs3)C(=O)C1C1C=CC2C1 (stereo unspecified) | inactive
C[C@H](O)[C@@H]1C(=O)N2C(C(=O)O)=C(SCCN=CN)C[C@@H]12 | inconclusive: 3.8 nM
COc1ccccc1N1CCN(c2nc(C)nc3c2oc2ccccc23)CC1 | inconclusive: 2.6 nM
CSc1cccc(NS(=O)(=O)c2ccc(F)cc2)c1 | inconclusive: 1.3 nM
COc1ccc(N2CCN(C(=O)c3cn(C)c(=O)c4c3c3ccccc3n4C)CC2)cc1 | active: 26 nM

Compound | max dye-equivalent concentration
CS(=O)(=O)Nc1cccc(-c2ccc3ncnc(NCc4cccs4)c3c2)c1 | inactive
CNc1oc(-c2cccs2)nc1C#N | active: 2600 nM
COc1ccccc1-c1nc(-c2cccc(C)c2)no1 | inactive
Clc1ccc(-n2ncc3c(NCCN4CCOCC4)ncnc32)cc1 | inconclusive: 2 nM
O=S(=O)(c1ccccc1)N1C2CCC1CC(O)(c1cccnc1)C2 (stereo unspecified) | inconclusive: 1.2 nM
Cc1ccnn2c(-c3ccccc3)c3c(=O)n(C)c(=O)n(C)c3c12 | inactive
CCn1c(C)nc2cc(-c3nnc(-c4c(-c5ccccc5)noc4C)o3)ccc21 | inconclusive: 1.1 nM
COC(=O)c1[nH]c2ccccc2c1NC(=O)CCN1CCSCC1 | inactive
Nc1nc2n[nH]nc2c(=O)[nH]1 | active: 15 nM
Cc1ccc(-n2ncc3c(=O)n(CC#N)cnc32)cc1 | inconclusive: 1.6 nM
CC(=O)[C@@]1(O)Cc2c(O)c3c(c(O)c2[C@H](O[C@H]2C[C@H](N)[C@H](O)[C@H](C)O2)C1)C(=O)c1ccccc1C3=O | active: 15 nM
O=c1c2ccccc2c(/C=N/n2cnnc2)c(O)n1-c1ccccc1F | active: 170 nM
O=C(NCCc1ccco1)c1nn(Cc2ccccc2)c(=O)c2ccccc12 | inactive
O=C1CCCC(=NCc2ccco2)C1 | inconclusive: 7.2 nM
COc1ccc(C2C(C(=O)N3CC(C)CC(C)C3)c3ccccc3C(=O)N2C)cc1 (stereo unspecified) | inconclusive: 3.2 nM
Clc1ccc2c(c1)N(CCCN1CCCC13CCCCC3)c1ccccc1S2 | inactive
c1ccc2c(c1)nc(Nc1ccc3c(c1)OCO3)c1nnnn12 | active: 31 nM
Brc1ccc(-c2nc(-c3ccncc3)no2)o1 | inconclusive: 7.7 nM
CCOCCCn1c(C)nc2c(c1=O)c1nc3ccccc3nc1n2-c1ccc(C)cc1 | active: 250 nM
O=c1[nH][nH]c(=O)c2cc(N3CCCC3)ccc12 | active: 47 nM
O=C(NC1CCCCC1)N1CCC(c2nc(-c3ccc(S(=O)(=O)N4CCCC4)cc3)no2)CC1 | inconclusive: 2.4 nM
O=C1NCCCC1C(=O)Nc1cccc(C(F)(F)F)c1 (stereo unspecified) | inconclusive: 1.3 nM
